# Measured values taken from article PMC7862700.
# The list shows a part of the results, in another mix than the full data. At the low end of the ranking, values are background and their order means little.
# Target: SPI1 (UniProt P17947)
# Test: DAPPL (digital affinity profiling via proximity ligation, sequencing)
# Settings: 10 mM Tris-HCl pH 7.5, 50 mM NaCl, 1 mM DTT, 4% glycerol, room temperature, 30 min; GST-TFs on glutathione beads, 16-mer random dsDNA library, 0.1% …; high values mean tight binding; double strand, one strand shown; scale: fold enrichment (6-mer frequency, TF over GST control)
row,Sequence,binding signal
1,GCGATC,1
2,TAGTGT,1.12
3,ATTCAA,1.31
4,CTACTG,1.23
5,GCTTAA,0.928
6,CAACCG,0.982
7,CTCGGC,1.45
8,CCCTTC,1.52
9,TCTATC,1.22
10,TCCAGC,0.852
11,CGCGTA,0.951
12,TTTAAC,1.19
13,TGGTGA,0.952
14,GTTGGC,0.939
15,TCTGGA,1.01
16,GTATTG,0.92
17,GCCGCT,1.12
18,TTACAG,1.11
19,TACGGG,0.802

# Rewritten tab-delimited: part of the list above
row	Sequence	binding signal
9	TCTATC	1.22
10	TCCAGC	0.852
11	CGCGTA	0.951
12	TTTAAC	1.19
13	TGGTGA	0.952
14	GTTGGC	0.939
15	TCTGGA	1.01
16	GTATTG	0.92
17	GCCGCT	1.12
18	TTACAG	1.11
19	TACGGG	0.802

# (listing goes on)

row,Sequence,binding signal
1,TAGTGC,1.05
2,TCTGAG,0.938
3,GTCCCA,1.13
4,CCAAAT,1.09
5,CAACTA,1.28
6,GATACC,0.934
7,GGATGT,1.53
8,TCCCCC,1.46
9,AACGGT,0.952
10,AAGCAA,0.985
11,CGGCAT,1.13
12,TAATCG,1.02
13,TTGCAG,1.08
14,GTTGCC,0.869
15,CCCGCG,0.882
16,AATTAT,1.18
17,TGTACA,1.28
18,GTTTTA,1.12
19,GATGGG,0.978
